{"source": "patent US20250381110A1", "about": "“SKIN CARE COMPOSITION AND METHOD OF USING THE SAME” (THE PROCTER & GAMBLE COMPANY, priority 2024, published 2025)", "tested_on": "p62-dependent mitophagy", "test": "Luciferase-p62 assay (Fluc-p62 clearance) in mouse embryonic fibroblasts", "type": "cell-based", "procedure": "To identify p62-dependent materials which increase mitophagy, a Luciferase-p62 Assay was established. This method provides an approach to measure the ability of a material to modulate p62-dependent mitophagy by using an inducible firefly luciferase-p62 (Fluc-p62) reporter cell system. In this assay, p62 levels are driven by doxycycline treatment. After levels increased, expression of Fluc-p62 is turned off by removal of doxycycline, materials are then added and assessed for how they affect clearance of Fluc-p62 protein, which is proportionate to cellular mitophagy rates (Kelly et al.). The negative control is doxycycline induced Luc-p62 in the absence of compound or bioactive material treatment and in the presence of vehicle (DMSO).\nTest materials including bioactive materials were screened in mouse embryonic fibroblasts (MEFs, Harada et al.) expressing the TET-inducible p62-fluc construct as previously described (Brown et al.). […] Gibson assembly was used to insert firefly luciferase (Fluc) and p62 into the pCW57.1 backbone. Fluc, p62, and pCW57.1 were polymerase chain reaction (PCR) amplified using pfu polymerase (Life technologies) and Gibson assembly primers with 20 base pair (bp) overhangs. PCR products were separated by agarose gel electrophoreses, and fragments excised and purified before use in DNA assembly reaction with NEBuilder HiFi DNA Assembly kit (New England Biolabs). […] Subsequently, cells were treated with test materials for 48 hours in normal growth medium and analysed using ONE-Glo™+Tox Luciferase Reporter and Cell Viability Assay (Promega) by following the manufacturer's protocol.\nTest compositions and control compositions were prepared as described above in the Luciferase-p62 assay (Method 3) and tested accordingly. The compounds used in this example, as examples of bioactive materials, were from the APExBIO DiscoveryProbe™ Natural Product Library Plus (Houston, TX) and evaluated at equivalent concentrations (10 μM).\nData are additionally calculated as percentage of activity relative to rapamycin, a benchmark control compound tested in the same experiment.", "note": "Counter-ions that a name gives are not always drawn."}
{"molecule": "CCC[C@@H]1C[C@@H](C(=O)N[C@@H]([C@H]2O[C@H](SC)[C@H](O)[C@@H](O)[C@H]2O)[C@H](C)Cl)N(C)C1", "note": "[Clindamycin HCl]", "values": [{"measurement": "Mean Luminescence", "setting": "Luciferase-p62 assay, mouse embryonic fibroblasts (MEFs), compounds at 10 μM", "result": 803.11}, {"measurement": "% Activity over baseline", "setting": "percentage of Luciferase-p62 clearance relative to baseline (mean luminescence in the absence of doxycycline induction), MEFs, 10 μM", "result": 50.37, "unit": "%"}, {"measurement": "% Activity relative to Rapamycin", "setting": "percentage of activity relative to rapamycin tested in the same experiment at the same concentration, MEFs, 10 μM", "result": 90.75, "unit": "%"}]}
